Results reported in patent publication US20230074145A1.
No constants are given. Whether binding was seen depends on the method and setting. Some binding calls cover weakened binding; strength is not graded here.

Sequences of proteins named here, by UniProt entry; tags and fusion partners are left off. Residues count along the entry.
UniProt P25092, residues 24-1073: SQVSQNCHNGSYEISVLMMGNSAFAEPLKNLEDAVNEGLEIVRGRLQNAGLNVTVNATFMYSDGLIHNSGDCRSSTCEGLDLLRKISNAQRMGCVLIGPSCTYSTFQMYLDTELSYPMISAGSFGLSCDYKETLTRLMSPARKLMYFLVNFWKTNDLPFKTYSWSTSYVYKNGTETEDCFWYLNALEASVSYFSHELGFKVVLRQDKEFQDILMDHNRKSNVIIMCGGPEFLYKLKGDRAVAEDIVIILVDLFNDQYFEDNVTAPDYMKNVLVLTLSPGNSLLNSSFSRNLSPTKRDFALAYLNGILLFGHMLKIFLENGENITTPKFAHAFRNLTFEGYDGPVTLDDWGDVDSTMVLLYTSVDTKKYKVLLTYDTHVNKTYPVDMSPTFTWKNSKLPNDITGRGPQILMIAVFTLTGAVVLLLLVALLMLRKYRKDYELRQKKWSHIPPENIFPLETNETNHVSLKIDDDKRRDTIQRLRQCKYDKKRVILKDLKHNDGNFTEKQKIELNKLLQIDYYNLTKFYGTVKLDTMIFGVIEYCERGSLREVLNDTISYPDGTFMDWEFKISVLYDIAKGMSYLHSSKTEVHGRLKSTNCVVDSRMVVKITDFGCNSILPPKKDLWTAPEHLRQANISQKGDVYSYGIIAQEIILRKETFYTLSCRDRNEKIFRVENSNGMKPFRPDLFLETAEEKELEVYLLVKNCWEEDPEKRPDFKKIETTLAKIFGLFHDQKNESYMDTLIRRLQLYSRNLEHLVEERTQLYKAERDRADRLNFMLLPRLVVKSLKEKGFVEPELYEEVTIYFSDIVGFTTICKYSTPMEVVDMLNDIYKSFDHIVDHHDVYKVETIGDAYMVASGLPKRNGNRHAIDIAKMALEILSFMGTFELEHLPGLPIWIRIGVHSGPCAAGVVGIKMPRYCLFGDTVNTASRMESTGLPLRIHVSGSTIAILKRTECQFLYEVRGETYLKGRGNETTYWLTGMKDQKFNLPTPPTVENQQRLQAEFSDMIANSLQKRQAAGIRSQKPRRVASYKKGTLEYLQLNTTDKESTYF

B1: VHH antibody #32 (VHH)
VHH: DVQLQESGGGLVQAGGSLRLTCTTTFSSYAMGWFRQAPGKEREFVATISGGGVYTYYADSVKGRFTISRDNSKNTMYLQMNSLKFEDTAVYYCAQRNIPRYGLESRNYDYWGQGTQVTVSS
B2: Bivalent antibody of VHH antibody #32 (protein, not shown: a dimerising Fc or GST)
chain: DVQLQESGGGLVQAGGSLRLTCTTTFSSYAMGWFRQAPGKEREFVATISGGGVYTYYADSVKGRFTISRDNSKNTMYLQMNSLKFEDTAVYYCAQRNIPRYGLESRNYDYWGQGTQVTVSS
B3: VHH antibody #62 (VHH)
VHH: DVQLQESGGGLVQAGGSLRLACAASGRTASSNAMGWFRQAPGKEREFVAAISGGGIYTDYADSVKGRFTISRDNSKNTMYLQMNSLKPEDTAVYYCAQRNIPRIGLGSGNYDYWGQGTQVTVSS
B4: Bivalent antibody of VHH antibody #62 (protein, not shown: a dimerising Fc or GST)
chain: DVQLQESGGGLVQAGGSLRLACAASGRTASSNAMGWFRQAPGKEREFVAAISGGGIYTDYADSVKGRFTISRDNSKNTMYLQMNSLKPEDTAVYYCAQRNIPRIGLGSGNYDYWGQGTQVTVSS

molecular target: GCC (GUCY2C, Guanylate Cyclase 2C) on GCC positive cells (UniProt P25092); assay: flow cytometry on GCC positive and GCC negative cells

binding, binds:
B1, B2, B3, B4
